Measured values as given in patent US7763650B2, “Pharmaceutical compound and method” (Medipharma S.A., priority 2006, dated 2010).

Tested on: Maximal electroshock seizures
Experiment: Maximal electroshock seizure (MES) anticonvulsant test
Format: in vivo
Conditions: mice, ip; time of peak effect read from graphs of percentage effect against time
Description: In Vivo Experiments: The pharmacological tests were performed according to standard procedures provided by the Antiepileptic Drug Development (ADD) Program of the National Institute of Neurological and Communicative Disorders and Stroke (NINCDS). Anticonvulsant tests: Maximal electroshock seizures were elicited in mice by delivering a 60 Hz/50 mA electrical stimulus for 0.2 sec. via ear clip electrodes. A drop of saline solution applied on each ear before placing the electrodes ensures adequate electrical contact. In these conditions, maximal seizures are produced in virtually all normal mice. The maximal seizure typically consists of a short period of tonic flexion followed by a longer period of tonic extension of the hind limbs and a final clonic episode. Blockade of the hind limbs tonic extensor component due to the drug treatment is taken as the end point. […] Determination of the Time of Peak Effect (TPE): […] The percentages of protection or neurotoxicity are recorded and plotted against time and the TPEs are determined by visual inspection of the graphs. Estimation of the ED50s: Groups of 8 animals per dose are injected via ip. […] The percentages of protection at each dose (converted to probit) were plotted against log-doses.

Compound	TME: Time to Maximum Effect [h]
CCCC(CCC)C(=O)OC1C(O)C(O)C(OC(=O)C(CCC)CCC)C(OC(=O)C(CCC)CCC)C1OC(=O)C(CCC)CCC (racemic) [Example 4, (±)-3,4,5,6-tetra-O-(2-propylpentanoyl)-myo-inositol]	1
CCCC(CCC)C(=O)OC1C(O)C(O)C(O)C(O)C1OC(=O)C(CCC)CCC (racemic) [Example 5, (±)-3,4-Di-O-(2-propylpentanoyl)-myo-inositol]	0.5
CCCC(CCC)C(=O)O[C@H]1[C@H](OC(=O)C(CCC)CCC)[C@@H](OC(=O)C(CCC)CCC)[C@H](OC(=O)C(CCC)CCC)[C@@H](OC(=O)C(CCC)CCC)[C@H]1OC(=O)C(CCC)CCC [Example 1, (±)1,2,3,4,5,6-hexa-O-(2-propylpentanoyl)-myo-inositol]	2
CCCC(CCC)C(=O)O [Valproic acid, valproic acid, reference compound]	0.25
(±)-5,6-Di-O-(2-propylpentanoyl)-1,2:3,4-di-O-cyclohexyl-O-myo-inositol [Example 2]	1
